Results published in paper PMC12040169 (PLOS Biology, 2025).
This is one part of the list.

The molecules below were run on T1, CTL2-GFP (C. trachomatis L2/434/Bu, GFP-expressing). Settings: bulk GFP, single well; 28.5 h, 10 µM; inhibitor.
T1 construct: L2/434/Bu, GFP-expressing
Set-up: species or system HeLa; Intracellular C. trachomatis growth in HeLa cells, bulk GFP fluorescence relative to DMSO

| Compound | % of control remaining |
| --- | --- |
| CS(=O)(=O)c1ccc(NC(=S)N2CCN(c3ccc(F)cc3)CC2)cc1 [CBK300507] | 126.255% |
| COc1ccc(OCCNC(=O)c2cc(Br)cnc2N(C)C(C)=O)cc1 [CBK076467] | 103.317% |
| C=CCn1c(SCC(=O)Nc2ccc(C(=O)OC)cc2)nnc1-c1ccc(Br)cc1 [CBK101797] | 100.717% |
| CC(C)n1nccc1C(=O)N1CCCC(c2cc3cccnc3[nH]2)C1 (centres unmarked) [CBK284930] | 117.634% |
| CCN(CC)C(=O)CCn1c(-c2ccc(C)nc2)cc2cccnc21 [CBK282150] | 136.087% |
| COc1cccc(CN2C(=O)COc3ccc(C(=O)c4cccs4)cc32)c1 [CBK286412] | 137.295% |
| COc1ccc(Br)cc1C(=O)NCC1(c2ccccc2)CCOCC1 [CBK067051] | 103.052% |
| CC1(C)CC(=O)C=C(C(=O)NCc2cccs2)O1 [CBK153292] | 112.052% |
| O=C(c1cnn(C(=O)c2ccc3c(=O)n4c(nc3c2)CCC4)c1)c1ccccc1O [CBK295145] | 144.115% |
| N[C@H]1CC[C@H](N(CCc2ccccc2)C(=O)N[C@@H]2C[C@H]2c2ccccc2)CC1 [CBK000474C] | 113.96% |
| Cc1nn(C)cc1C(=O)O[C@H]1C[C@@H](c2ccc(F)cc2)N(C)C1=O [CBK283615] | 106.066% |
| O=C(Nc1ccc(S(=O)(=O)NCCc2ccccc2)cc1)c1ccc2c(c1)OCO2 [CBK265591] | 86.2775% |
| O=C(COc1ccccc1Cl)NC(=S)Nc1cccc(C(=O)O)c1 [CBK265662] | 128.872% |
| COc1ccc2[nH]cc(CC(=O)NCc3ccc(-c4csnn4)cc3)c2c1 [CBK149313] | 88.3574% |
| CC(=O)NCCc1c(C(=O)O)[nH]c2ccc(OCc3ccccc3)cc12 [CBK260945] | 100% |
| CCOC(=O)c1c(NC(=O)Cn2cnc([N+](=O)[O-])n2)sc2c1CCCC2 [CBK262583] | 100% |
| CC(C)NC(=O)C1(Cc2ccc(-c3ccccc3)cc2)CCN(C(=O)C2CCCC2)CC1 [CBK285751] | 114.357% |
| CC(C)CS(=O)(=O)Nc1ccc(F)cc1F [CBK020615] | 109.879% |
| c1ccc2c(c1)OCC(COc1cncc(N3CCNCC3)n1)O2 (centres unmarked) [CBK172357G] | 114.354% |
| Cc1nc2cc(C(=O)N3CCC(c4ccccc4)C3)ccc2n1C (centres unmarked) [CBK281841] | 155.876% |
| Cc1ccc(S(=O)(=O)c2ccc(C)c(S(N)(=O)=O)c2)cc1S(N)(=O)=O [CBK261664] | 123.718% |
| CN(C)CCCC(=O)Nc1cccc2[nH]ccc12 [CBK159660] | 120.9% |
| O=C(NC1CC2(CCCC2)Oc2ccccc21)C1CCOC1 (centres unmarked) [CBK283802] | 137.491% |
| COc1cc(C(=O)N2CCC3(CC2)NC(=O)c2cc(Br)ccc2O3)ccc1C [CBK149464] | 113.18% |
| C=CCNC(=O)N[C@H]1[C@H](O)[C@@H](N(CC)CC)[C@@H]2OC[C@H]1O2 [CBK288817] | 128.366% |
| CC(C)N(C)CC(=O)N(C)c1nc2c(s1)CC(c1ccccc1)CC2 (centres unmarked) [CBK305535] | 115.352% |

| Compound | % of control remaining |
| --- | --- |
| COC(=O)CCc1ccc(S(=O)(=O)N2CCCN(Cc3cc(F)c(F)c(F)c3)CC2)cc1 [CBK062998] | 118.036% |
| Cc1c(F)cccc1CN(CC(C)(C)CN)C(=O)Nc1ccc(C(F)(F)F)cc1 [CBK002417C] | 96.6047% |
| O=C(CN1C(=O)N2CCCN=C2c2ccccc21)N1CCCCC1 [CBK284395] | 132.193% |
| CCOC(=O)C(C)NC(=O)c1cc2ccc(F)cc2[nH]1 (centres unmarked) [CBK283214] | 90.6769% |
| Clc1cnc2nc(NCC3CCCCC3)sc2c1 [CBK067087] | 134.945% |
| O=C(CN1CCOCC1)NCCNc1c(Cl)c(Cl)c(Cl)c(Cl)c1Cl [CBK266851] | 130.791% |
| Cc1cc(=O)oc2cc(NC(=S)NNC(=O)c3ccc(Cl)s3)ccc12 [CBK266828] | 148.333% |
| Cc1cc(C)nc(NC(=O)OCCN2CCN(C)CC2)c1 [CBK138235] | 108.675% |
| CCOc1cc(/C=C2\S/C(=N/c3ccc(S(N)(=O)=O)cc3)NC2=O)c(Br)cc1O [CBK265622] | 131.104% |
| CC(NC(=O)c1cn(C)c(=O)c2ccccc12)c1ccccn1 (centres unmarked) [CBK281886] | 109.448% |
| CC1CN(S(=O)(=O)c2ccc(NC(=O)C3CC(=O)Nc4cc(F)ccc43)cc2)CC(C)O1 (centres unmarked) [CBK297933] | 153.382% |
| Cc1cccc(C)c1OCC(=O)Nc1ccc(S(=O)(=O)N2CCOCC2)cc1 [CBK266967] | 121.409% |
| N#Cc1ccccc1CSc1nc2ccc(NC(=O)c3ccc([N+](=O)[O-])cc3)cc2s1 [CBK265868] | 176.738% |
| N=C(N)SCCCCCSC(=N)N [CBK278314B] | 109.731% |
| COc1ccc(CC(=O)NC(CCSC)c2nnc3ccccn23)cc1 (centres unmarked) [CBK306077] | 165.244% |
| COc1ccc(CNC(=O)[C@H]2C=CCN2C(=O)c2ccco2)cc1 [CBK284321] | 152.791% |
| Cn1c(=O)n(CC(=O)N2CCC(C(=O)NC(c3ccccc3)c3ccccn3)CC2)c2ccccc21 (centres unmarked) [CBK060494] | 123.575% |
| Fc1ccccc1-c1cn2ccnc2c(N2CCOCC2)n1 [CBK036584] | 133.495% |
| COc1ccc(/C=N/NC(=O)CSc2nnc(C)n2-c2ccccc2)cc1 [CBK262812] | 103.687% |
| CN1CCN(C(=O)c2ccc(-c3ccc4c(c3)OCO4)nc2NCc2cccnc2)CC1 [CBK076110] | 102.637% |
| O=C(CCCN1C(=O)c2cccc3cccc(c23)C1=O)NCc1cccnc1 [CBK262190] | 100% |
| COc1ccccc1C(C)N(C)CCC(=O)Nc1cc(C)on1 (centres unmarked) [CBK305098] | 113.81% |
| COC(=O)Nc1nc2cc3cn[nH]c3cc2[nH]1 [CBK016129] | 101.604% |
| CC1CCCCN1C(=O)c1cccc(Cn2cc(Br)c([N+](=O)[O-])n2)c1 (centres unmarked) [CBK058788] | 80.2992% |
| Cc1nc(O)cc(C2CCCN(C(=O)c3scc4c3CCCC4)C2)n1 (centres unmarked) [CBK306969] | 152.388% |
| CC(=O)N1CCc2sccc2C1c1ccc(NC(=O)C2CC2)cc1 (centres unmarked) [CBK282907] | 106.602% |

Grouped by structure: the entries above containing a nitro group on carbon.

| Compound | % of control remaining |
| --- | --- |
| CCOC(=O)c1c(NC(=O)Cn2cnc([N+](=O)[O-])n2)sc2c1CCCC2 [CBK262583] | 100% |
| N#Cc1ccccc1CSc1nc2ccc(NC(=O)c3ccc([N+](=O)[O-])cc3)cc2s1 [CBK265868] | 176.738% |
| CC1CCCCN1C(=O)c1cccc(Cn2cc(Br)c([N+](=O)[O-])n2)c1 (centres unmarked) [CBK058788] | 80.2992% |

2 of the compounds above, with bars between the fields.
Compound | % of control remaining
O=C(CN1C(=O)N2CCCN=C2c2ccccc21)N1CCCCC1 [CBK284395] | 132.193%
CCOc1cc(/C=C2\S/C(=N/c3ccc(S(N)(=O)=O)cc3)NC2=O)c(Br)cc1O [CBK265622] | 131.104%

Next part.

| Compound | % of control remaining |
| --- | --- |
| O=C(NC1CC1)[C@H]1CN2CCC1C[C@@H]2Cn1cc(-c2cccc(O)c2)nn1 (some centres unmarked) [CBK288738] | 158.767% |
| CCOC(=O)N1CCN(C(=O)c2oc3ccccc3c2C)CC1 [CBK023696] | 126.864% |
| CCCC1CCN(CC2C=Cc3cc(-c4ccc(S(C)(=O)=O)cc4)ccc3O2)CC1 (centres unmarked) [CBK158647] | 135.452% |
| O=C(c1ccccc1)c1ccc(CNC(=O)C2(c3ccccc3)CCCC2)cc1 [CBK161526] | 85.5237% |
| CC(C)Nc1nccnc1OCCN1CCOCC1 [CBK113410] | 140.592% |
| COc1ccc2oc(C(=O)NC(C)(C)CN3CCCCC3)cc2c1 [CBK282053] | 140.756% |
| COc1ccc(OCCCCCN2CCC3(CC2)OCCc2c3[nH]c3ccccc23)cc1 [CBK113517T] | 49.748% |
| CC(C)(C)OC(=O)N1CCN(c2ccc(N)c3ccccc23)CC1 [CBK003162] | 97.2148% |
| O=C(Cc1c[nH]c2ccccc12)N1CCCC1c1cccc(Cc2ccccc2F)n1 (centres unmarked) [CBK285799] | 131.205% |
| CC(C)CC1(C(CN2C(=O)c3ccccc3C2=O)C(=O)NO)CCN(CCc2ccccc2)C1=O (centres unmarked) [CBK013029] | 112.187% |
| CC(=O)Nc1ccc(-c2cc(Nc3cccc(N(C)C)c3)ncn2)cc1 [CBK091017] | 172.239% |
| O=C(Nc1cccc(N2CCNCC2)c1)c1cnccn1 [CBK029470T] | 131.268% |
| Cc1ccnn1CCNC(=O)CCc1ccc(Cl)cc1 [CBK283182] | 81.5453% |
| COc1ccc(Br)cc1CN1CCN(Cc2cccc([N+](=O)[O-])c2)CC1 [CBK263347] | 100% |
| O=C(CN1C(=O)CCC1=O)NCCc1ccccc1 [CBK262326] | 106.467% |
| O=C(Oc1ccc(N(C(=O)c2ccncc2)S(=O)(=O)c2cccc3cccnc23)c2ccccc12)c1ccncc1 [CBK266915] | 99.6878% |
| Cc1ccc(NC(=O)CCC(=O)N2CCC3(CC2)CC(=O)c2ccccc2O3)cc1 [CBK156524] | 99.7798% |
| O=C(CN1C(=O)c2ccccc2C1=O)Nc1cccc(C(=O)O)c1 [CBK287040] | 106.74% |
| COC(=O)c1cn([C@H]2CO[C@H]3[C@@H]2OC[C@@H]3NC(=O)C2CC2)nn1 [CBK289497] | 137.911% |
| CN1CCN(S(=O)(=O)c2ccc(NC(=O)Cc3ccc([N+](=O)[O-])cc3)cc2)CC1 [CBK268161] | 90.4768% |
| Cc1cc(NCC2CCCO2)n2ncc(-c3ccccc3)c2n1 (centres unmarked) [CBK304530] | 120.322% |
| CN(C(=O)NC1CCN(Cc2cccc(O)c2)CC1)C1CCS(=O)(=O)C1 (centres unmarked) [CBK306538] | 128.206% |
| COc1ccccc1N1CCN(C(=O)C2CC2C)CC1 (centres unmarked) [CBK091496] | 178.56% |
| COc1ccc(C(CC(=O)O)NC(=O)c2ccc(Cl)cc2Cl)cc1 (centres unmarked) [CBK269131] | 139.566% |
| O=C(Cn1cnc2ccccc2c1=O)Nc1cccc(-c2cnc3ccccc3n2)c1 [CBK270020] | 162.545% |
